# Values joined by “and” are separate entries in the source; they are usually repeats but may differ in a detail not shown here. Equal values may be shown once. The list shows a part of the results. Further columns of the screen follow, without active or inactive calls. The list favours compounds with an active or inconclusive main result. The note in brackets gives the kind of curve behind each potency; many fits are weak.
# Assay: Cell signaling CRE-BLA (Fsk stim)
# Details: CHO CRE-bla reporter (cAMP response element driving beta-lactamase), forskolin EC10, beta-lactamase ratio; measured here: 460 nm blue channel
# In short: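 Modulation of forskolin-driven signalling is measured in CHO cells carrying a CRE-controlled beta-lactamase reporter. Cells are stimulated with EC10 NKH 477 in the presence of titrated compound for 3 h at 37 °C, then loaded with CCF4 for 2 h at room temperature.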
row,SMILES,AC50
1,O=C1c2ccccc2-c2n[nH]c3cccc1c23,"15.8 µM [rising, partial curve] and 5.01 µM [rising, full curve]"
2,Cc1cc(Nc2ccc(F)cc2C)n2nc(C)nc2n1,"10 µM [rising, partial curve]"
3,COc1cccc(-c2nccc(-n3ccnc3)n2)c1,"10 µM [rising, partial curve]"
4,CCCc1nc2oc3c(NCCN(C)C)ncnc3c2c2c1CCCC2,"6.31 µM [rising, partial curve]"
5,Cc1ccc(C(=O)Nc2ccccc2N2CCN(C(=O)C(C)C)CC2)cc1C,"15.8 µM [falling, single point]"
6,CC(C)[C@H](CO)Nc1nc(Nc2cc(N)cc(Cl)c2)c2ncn(C(C)C)c2n1,"15.8 µM [falling, partial curve]"
7,COc1cc2c(c(OC)c1OC)-c1ccc(OC)c(=O)cc1[C@@H](NC(C)=O)CC2,"251 nM [rising, full curve] and 501 nM [rising, full curve] and 1.26 µM [rising, full curve]"
8,CCc1nc(SCC(=O)N2CCC(C)CC2)c2c(=O)n(C)c(=O)n(C)c2n1,"10 µM [rising, partial curve]"
9,CCC(Sc1nc(-c2ccccc2)c(C#N)c(=O)[nH]1)C(=O)Nc1cc(C)on1 (configuration not stated),"0.251 µM [falling, full curve]"
10,COc1ccc(-c2cc(C(F)F)n3ncc(C(=O)NCCCN4CCCC4=O)c3n2)cc1,"6.31 µM [rising, partial curve]"
11,CO/C=C/C#CC1(O)CCN(C)CC1,"3.16 µM [falling, partial curve]"
12,COCCn1c(=O)c(-c2ccc(F)cc2)nc2cnc(N(C)C)nc21,"2 µM [rising, full curve]"
13,Cc1ccccc1-n1nc2c(c1NC(=O)c1cc3ccccc3oc1=O)CS(=O)C2 (configuration not stated),"2 µM [rising, full curve]"
14,Cc1oc(C(=O)Nc2ccc(O)cc2)cc1COc1ccccc1,"25.1 µM [falling, single point]"
15,COCCCn1c(=S)[nH]c2ncccc2c1=O,"0.1 µM [rising, full curve]"
16,CCOc1ccc(-c2nc(CSCC(=O)N3CCN(c4cccc(OC)c4)CC3)c(C)o2)cc1,"12.6 µM [falling, single point]"
17,COc1cc(OC)c(-c2nnc(-c3ccc(OC)c(OC)c3OC)o2)cc1OC,"2 µM [rising, full curve]"
18,COc1cc(OC)c(C(=O)Nc2ncn[nH]2)cc1OC,"10 µM [rising, partial curve]"
19,Cc1cc(C)c(OCC(=O)Nc2cccc(NC(=O)c3ccco3)c2)c(Br)c1,"0.631 µM [rising, single point]"
20,COC(=O)c1nnn(-c2ccccc2)c1N,"0.251 µM [falling, partial curve]"
21,CCOC(=O)c1c(NC(=O)c2nn(CC)cc2Br)c(C#N)nn1-c1ccccc1,"10 µM [rising, partial curve]"
22,NS(=O)(=O)c1cc2c(cc1Cl)N[C@@H]([C@@H]1C[C@@H]3C=C[C@H]1C3)NS2(=O)=O,"31.6 µM [falling, single point]"
23,O=S(=O)(c1cccc(-c2nnc(-c3cccnc3)o2)c1)N1CCCCC1,"10 µM [rising, partial curve]"

# By substructure: those above with bromine.
row,SMILES,AC50
19,Cc1cc(C)c(OCC(=O)Nc2cccc(NC(=O)c3ccco3)c2)c(Br)c1,"0.631 µM [rising, single point]"
21,CCOC(=O)c1c(NC(=O)c2nn(CC)cc2Br)c(C#N)nn1-c1ccccc1,"10 µM [rising, partial curve]"

# (continued)

row,SMILES,AC50
1,CC(C)CCn1c(SCC(=O)c2ccccc2)nc2c1c(=O)[nH]c(=O)n2C,"3.16 µM [rising, full curve, poor fit]"
2,Cc1ccc(C)c(S(=O)(=O)C(C#N)c2nc3ccccc3nc2N2CCCC2)c1 (configuration not stated),"25.1 µM [rising, single point]"
3,Cc1c(-c2nc(N)nc(Nc3ccccc3)n2)oc2ccccc12,"0.158 µM [rising, full curve]"
4,N#Cc1ccccc1-c1ccc2ncnc(NC3CC3)c2c1,"7.94 µM [rising, partial curve]"
5,CCN(CC)S(=O)(=O)c1ccc(-c2nnc(SCC(=O)Nc3nc(C)cs3)o2)cc1,"5.01 µM [falling, single point]"
6,CCOc1cc(C)nc(NCCc2ccc(OC)c(OC)c2)n1,"15.8 µM [rising, partial curve]"
7,CCOc1ccc(OCC)c2sc(C)nc12,"10 µM [rising, partial curve]"
8,C/C(=C\c1ccco1)C1C(C#N)=C(N)Oc2n[nH]c(-c3ccccc3)c21 (configuration not stated),"15.8 µM [falling, single point]"
9,Cn1c(=O)c2c(SCC(=O)NCc3ccco3)nc(CC(C)(C)C)nc2n(C)c1=O,"12.6 µM [rising, partial curve]"
10,CC1=C(C(=O)OCc2ccccc2)C(c2ccccc2OC(F)F)NC(=O)N1 (configuration not stated),"0.00316 µM [falling, full curve, poor fit]"
11,C=CC(=O)OCC(CO)(COC(=O)C=C)COC(=O)C=C,"2 µM [falling, full curve]"
12,O=c1c2[nH]c3ccccc3c2ncn1Cc1ccccn1,"10 µM [rising, partial curve]"
13,CC(C)(C)OC(=O)NCCc1nnc(S(=O)(=O)Cc2ccc(Cl)cc2Cl)o1,"0.794 µM [falling, full curve]"
14,COc1ccc(-c2nc3cnc(N4CCNCC4)nc3n(C3CC3)c2=O)cc1,"7.94 µM [rising, partial curve]"
15,Cc1cccc2cc(CN(CC3CCCO3)C(=O)c3cccnc3)c3nnnn3c12 (configuration not stated),"6.31 µM [rising, partial curve]"
16,CCNc1ncc2nc(-c3cc(F)cc(F)c3)c(=O)n(CCOC)c2n1,"2.51 µM [rising, full curve]"
17,CC1(C)CC(=O)C2=C(C1)NC(=O)CC2c1ccccc1F (configuration not stated),"10 µM [falling, partial curve]"
18,O=C(NCc1nc2ccccc2[nH]1)c1cc2ccccc2oc1=O,"3.16 µM [rising, full curve]"
19,N#Cc1nc(N2CCCC2)nc(N2CCCC2)n1,"10 µM [rising, partial curve]"
20,COc1ccc(-c2nc3cnc(OC)nc3n(CCc3ccccc3)c2=O)cc1,"15.8 µM [rising, partial curve]"
21,CCOC(=O)c1oc2ccccc2c1CN1CCOCC1,"12.6 µM [rising, partial curve]"
22,CCOC(=O)NCc1ccc(CNC(=O)OCC)cc1,"1 µM [rising, single point]"
23,CCN1C(=O)c2cccc3c(NC(=O)c4cccc(N5C(=O)CCC5=O)c4)ccc1c23,"7.94 µM [rising, partial curve]"

row,SMILES,AC50
1,CCOC(=O)CSc1nc(N)c(C#N)c(-c2ccc(OCC)cc2)c1C#N,"3.98 µM [rising, full curve, poor fit]"
2,O=C(O)CCC(=O)N1CCc2cc(S(=O)(=O)NC3CCCc4ccccc43)ccc21 (configuration not stated),"0.398 µM [falling, full curve]"
3,CCOC(=O)c1c(C)[nH]c2cc(Br)c(O)cc12,"10 µM [rising, partial curve]"
4,Cc1nc2ncnn2c(Nc2ccc3c(c2)OCO3)c1Cc1ccccc1,"25.1 µM [rising, single point]"
5,O=C(c1ccccc1Cl)N1CCC(c2nc3c(nnn3Cc3ccco3)c(=O)[nH]2)CC1,"10 µM [rising, partial curve]"
6,Cc1ccc2[nH]c(=O)c(CNC(C)(C)C)cc2c1,"1.58 µM [falling, single point]"
7,Cn1c(=O)n(C/C=C/c2ccccc2)c(=O)c2c1nc1n2CCCN1c1ccc(F)cc1,"6.31 µM [rising, partial curve]"
8,Cc1nn(-c2ccccc2)c2[nH]c(=O)c(CNCc3ccc4c(c3)OCO4)cc12,"25.1 µM [rising, single point]"
9,CCOc1cc(NS(C)(=O)=O)c(OCC)cc1NC(=O)c1cccs1,"20 µM [rising, single point]"
10,COC(=O)c1cn(NC(=O)C2CCCCC2)c(=O)c2ccccc12,"0.00398 µM [falling, full curve]"
11,CCc1nc2ccccc2c(C(=O)OC2CCOC2=O)c1C (configuration not stated),"20 µM [rising, single point]"
12,CCOC(=O)C1=C(C)Nc2nc(SCc3cccnc3)nn2C1c1ccc(OC)cc1 (configuration not stated),"15.8 µM [rising, partial curve]"
13,COc1cccc(Cn2c(=O)c(C)nc3cnc(N4CCNCC4)nc32)c1,"10 µM [rising, partial curve]"
14,O=C(O)c1cc(-c2ccccc2)c(N2CCOCC2)s1,"0.02 µM [falling, full curve, poor fit]"
15,C/C(=N\O)C(=O)NCc1ccccn1,"25.1 µM [falling, partial curve, poor fit]"
16,CCSc1nnc(NC(=O)CSc2nc3c(c(=O)n2-c2ccccc2OC)SCC3)s1,"10 µM [rising, partial curve]"
17,COCCn1c(=O)c(-c2ccc(F)cc2)nc2cnc(OCc3ccccc3)nc21,"25.1 µM [rising, single point]"
18,COc1ccc2[nH]cc(CCNc3ccnc(-c4ccccc4Cl)n3)c2c1,"2 µM [rising, partial curve]"
19,Cc1onc(-c2ccccc2Cl)c1C(=O)Nc1ccc(-c2cn3cccnc3n2)cc1,"0.02 µM [falling, full curve, poor fit]"
20,CC(C)CNC(=O)c1cc(-c2ccco2)on1,"0.00398 µM [falling, full curve, poor fit]"
21,CCCc1cc(C(=O)Nc2sc(C)c(C)c2C(=O)OCC)no1,"1.26 µM [rising, full curve]"

# Reference: PubChem BioAssay AID662 (National Center for Advancing Translational Sciences (NCATS), 2007)
